No constants are given. Whether binding was seen depends on the method and setting. In cells and extracts the contact can be indirect. A yes stands for co-enrichment or nearness to the bait. Other partners may have been found.
Tests used:
[1] = target: SMC2h-EGFP (Drosophila melanogaster) (UniProt A1Z9V8); test: affinity purification with mass spectrometry; anti-EGFP immunoprecipitates from extracts of embryos or ovaries expressing SMC2h-EGFP; SDS-PAGE, MS
[2] = target: SMC2 (endogenous) (Drosophila melanogaster (endogenous in embryos and ovaries)) (UniProt A1Z9V8); test: affinity purification with mass spectrometry; anti-SMC2 immunoprecipitates from wild type embryo extracts; mock control with beads only; SDS-PAGE, MS
[3] = target: Cap-G^FL-mRFP1 (Drosophila melanogaster); test: affinity purification with mass spectrometry; anti-mRFP1 immunoprecipitates from extracts of embryos or ovaries expressing Cap-G-mRFP1; SDS-PAGE, gel slices, LTQ Orbitrap; control w^1 ovaries

The chains behind the UniProt entries cited, without tags or fusion partners. Where a name states a change or a piece, a line headed by the entry shows the natural chain unless it says otherwise.
UniProt A1Z9V8: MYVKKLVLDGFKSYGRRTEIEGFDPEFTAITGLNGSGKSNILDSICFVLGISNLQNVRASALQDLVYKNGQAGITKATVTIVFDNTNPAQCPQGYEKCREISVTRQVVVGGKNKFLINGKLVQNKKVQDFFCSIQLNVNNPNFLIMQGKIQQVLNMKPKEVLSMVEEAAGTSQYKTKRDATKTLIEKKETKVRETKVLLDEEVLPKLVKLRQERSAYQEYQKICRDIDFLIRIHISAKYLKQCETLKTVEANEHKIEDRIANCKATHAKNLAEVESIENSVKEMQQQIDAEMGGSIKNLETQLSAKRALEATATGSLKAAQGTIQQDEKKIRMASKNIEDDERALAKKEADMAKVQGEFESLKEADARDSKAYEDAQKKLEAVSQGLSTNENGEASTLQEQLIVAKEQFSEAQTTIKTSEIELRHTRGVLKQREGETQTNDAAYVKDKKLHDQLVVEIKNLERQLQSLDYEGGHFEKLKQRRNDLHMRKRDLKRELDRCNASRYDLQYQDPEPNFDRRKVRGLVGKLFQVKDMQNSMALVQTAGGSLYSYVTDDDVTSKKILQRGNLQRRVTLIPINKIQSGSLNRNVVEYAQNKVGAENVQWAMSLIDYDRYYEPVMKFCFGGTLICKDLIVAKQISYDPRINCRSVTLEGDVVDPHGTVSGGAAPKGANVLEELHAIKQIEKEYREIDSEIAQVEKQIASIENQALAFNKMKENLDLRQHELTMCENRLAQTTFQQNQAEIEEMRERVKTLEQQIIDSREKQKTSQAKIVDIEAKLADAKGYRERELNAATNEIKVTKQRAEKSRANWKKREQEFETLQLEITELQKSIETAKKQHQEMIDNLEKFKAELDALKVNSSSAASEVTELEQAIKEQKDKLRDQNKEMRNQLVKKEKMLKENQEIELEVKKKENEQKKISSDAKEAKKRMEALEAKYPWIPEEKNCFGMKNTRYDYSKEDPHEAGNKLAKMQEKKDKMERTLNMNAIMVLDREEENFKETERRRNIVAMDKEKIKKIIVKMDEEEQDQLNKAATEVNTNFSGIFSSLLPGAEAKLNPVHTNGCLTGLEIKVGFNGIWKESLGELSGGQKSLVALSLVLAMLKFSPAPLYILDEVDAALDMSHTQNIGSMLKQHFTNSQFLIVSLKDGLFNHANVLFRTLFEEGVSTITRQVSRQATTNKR
UniProt Q9VAJ1: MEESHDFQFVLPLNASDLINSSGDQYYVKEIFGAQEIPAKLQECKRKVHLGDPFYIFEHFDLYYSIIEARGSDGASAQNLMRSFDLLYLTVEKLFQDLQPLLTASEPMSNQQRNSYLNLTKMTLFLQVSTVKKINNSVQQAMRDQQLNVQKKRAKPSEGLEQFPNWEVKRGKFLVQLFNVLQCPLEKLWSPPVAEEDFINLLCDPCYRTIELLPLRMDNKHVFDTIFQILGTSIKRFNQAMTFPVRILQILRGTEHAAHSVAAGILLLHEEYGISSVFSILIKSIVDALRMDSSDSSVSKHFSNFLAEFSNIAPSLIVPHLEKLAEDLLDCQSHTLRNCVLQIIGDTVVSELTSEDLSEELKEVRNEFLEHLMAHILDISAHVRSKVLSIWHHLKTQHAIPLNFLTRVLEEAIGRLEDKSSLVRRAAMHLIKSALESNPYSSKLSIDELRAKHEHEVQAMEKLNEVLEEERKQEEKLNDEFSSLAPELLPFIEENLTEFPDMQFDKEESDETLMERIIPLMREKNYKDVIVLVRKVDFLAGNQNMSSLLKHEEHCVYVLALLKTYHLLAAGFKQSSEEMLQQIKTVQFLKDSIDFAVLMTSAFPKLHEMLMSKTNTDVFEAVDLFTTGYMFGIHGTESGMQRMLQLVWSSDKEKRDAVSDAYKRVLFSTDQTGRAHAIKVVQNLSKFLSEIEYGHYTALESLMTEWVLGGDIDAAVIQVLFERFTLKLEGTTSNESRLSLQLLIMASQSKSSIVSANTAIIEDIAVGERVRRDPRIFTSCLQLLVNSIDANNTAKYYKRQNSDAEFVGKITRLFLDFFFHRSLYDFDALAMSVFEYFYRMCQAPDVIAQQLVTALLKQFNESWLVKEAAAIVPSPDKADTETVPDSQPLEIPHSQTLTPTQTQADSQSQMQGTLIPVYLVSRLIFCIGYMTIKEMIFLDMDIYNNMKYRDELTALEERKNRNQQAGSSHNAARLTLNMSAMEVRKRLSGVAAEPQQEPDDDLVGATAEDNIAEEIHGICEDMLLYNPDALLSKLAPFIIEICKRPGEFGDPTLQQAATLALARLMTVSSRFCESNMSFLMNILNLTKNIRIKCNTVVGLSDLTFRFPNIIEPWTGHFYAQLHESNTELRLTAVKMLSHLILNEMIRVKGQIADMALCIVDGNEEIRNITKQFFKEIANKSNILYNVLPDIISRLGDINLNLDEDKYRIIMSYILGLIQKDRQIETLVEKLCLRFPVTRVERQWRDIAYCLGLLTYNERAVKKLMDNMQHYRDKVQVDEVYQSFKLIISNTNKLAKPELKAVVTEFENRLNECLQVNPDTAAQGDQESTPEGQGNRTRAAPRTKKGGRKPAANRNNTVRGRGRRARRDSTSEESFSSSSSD

Row | Molecule | binding [1] | binding [2] | binding [3]
1 | Cap-D2 (endogenous) (from UniProt Q9VAJ1) | binds | binds | 
2 | Cap-H/Barren (endogenous) (protein, UniProt P91663 1-736) MTLPRLETPLRRSAVGSYQEGVSRMLTPFNDDEAERREARRRTLLQQHHRSSTLESIEDNETIKNCLELYNGNKVSKDNAWNLMLIDSLANLLDHHHKRMSNFKMAGSSLEASSKVYGLRVDSIYLDAMRISAGLSARTLTDKQINAAEDDDGPQGEQATGEGQDSAQQAAKEAAPKPKRQKKPISTVTKNRETLNSRLDTAPLQDPVFGKLNSTCGASINASNRLMHNILPSFDSELRLRTTYNFWNSEESTEEVQDHTTLNAEMEQWPATSLMSTNLMRKLLPHAERSNLRPLHTGYIITSAPNPKSANEKAAEVVQDEDHDEGLDNADDVCVNKISMAFDINAECEPMPDLDGPPPLVLEVDSNELEELTAEEQMVINNCRRLRKQTEFIEDLRPVDGNSKLEYSYRPMDQISQFWAGPSHWKFKRTRPRSTFSQTNGQVDTQPIRTQRAKKSAHLNANRRAKALDYGNVTENFFQQLDTTIRQRKANFQKKWDPRKLILPTKFELDPDLFFKYESAPSIKLSKRAGEPDSDEGGDLGIDMDADMHHDDDNDQELFNNEHFTDAVPANVSVIAAIAAEQAAEASMMNVSAGEIGLTQMNATCNNTVFEIGTEFEGAPSQVAKVIVPFAKRAKVIDMKNLKKSCNSLIQKQLLNAVPEETIPSHPKKKGEHYSKGFASFQQVYQKLPDLLTTKMSDSLSPSVAFYAVLHLANDLKLRLIPQEDLEDFQIRQVLD | binds | binds | binds

Source: PMC3630105
